Some of the results follow.

Sequences of proteins named here, by UniProt entry; tags and fusion partners are left off. A change or cut given only in a name is not applied to a line headed by its entry.
UniProt Q13243: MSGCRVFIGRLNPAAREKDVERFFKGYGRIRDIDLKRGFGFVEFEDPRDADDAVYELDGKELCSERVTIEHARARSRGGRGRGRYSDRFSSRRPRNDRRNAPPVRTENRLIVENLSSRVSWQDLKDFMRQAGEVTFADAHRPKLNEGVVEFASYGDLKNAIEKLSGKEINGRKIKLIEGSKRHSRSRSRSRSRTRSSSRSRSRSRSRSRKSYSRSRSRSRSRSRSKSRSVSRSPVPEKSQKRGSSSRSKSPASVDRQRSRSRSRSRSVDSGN
UniProt Q9C004: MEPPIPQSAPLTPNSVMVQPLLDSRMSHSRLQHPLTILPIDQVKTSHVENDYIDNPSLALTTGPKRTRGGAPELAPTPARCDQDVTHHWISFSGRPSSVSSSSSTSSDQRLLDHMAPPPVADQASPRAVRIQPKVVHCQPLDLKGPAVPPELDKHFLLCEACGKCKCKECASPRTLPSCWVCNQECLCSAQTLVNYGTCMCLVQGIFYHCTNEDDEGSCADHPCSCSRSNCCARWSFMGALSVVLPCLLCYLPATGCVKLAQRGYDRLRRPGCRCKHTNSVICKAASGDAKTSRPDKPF
UniProt Q9BXP5: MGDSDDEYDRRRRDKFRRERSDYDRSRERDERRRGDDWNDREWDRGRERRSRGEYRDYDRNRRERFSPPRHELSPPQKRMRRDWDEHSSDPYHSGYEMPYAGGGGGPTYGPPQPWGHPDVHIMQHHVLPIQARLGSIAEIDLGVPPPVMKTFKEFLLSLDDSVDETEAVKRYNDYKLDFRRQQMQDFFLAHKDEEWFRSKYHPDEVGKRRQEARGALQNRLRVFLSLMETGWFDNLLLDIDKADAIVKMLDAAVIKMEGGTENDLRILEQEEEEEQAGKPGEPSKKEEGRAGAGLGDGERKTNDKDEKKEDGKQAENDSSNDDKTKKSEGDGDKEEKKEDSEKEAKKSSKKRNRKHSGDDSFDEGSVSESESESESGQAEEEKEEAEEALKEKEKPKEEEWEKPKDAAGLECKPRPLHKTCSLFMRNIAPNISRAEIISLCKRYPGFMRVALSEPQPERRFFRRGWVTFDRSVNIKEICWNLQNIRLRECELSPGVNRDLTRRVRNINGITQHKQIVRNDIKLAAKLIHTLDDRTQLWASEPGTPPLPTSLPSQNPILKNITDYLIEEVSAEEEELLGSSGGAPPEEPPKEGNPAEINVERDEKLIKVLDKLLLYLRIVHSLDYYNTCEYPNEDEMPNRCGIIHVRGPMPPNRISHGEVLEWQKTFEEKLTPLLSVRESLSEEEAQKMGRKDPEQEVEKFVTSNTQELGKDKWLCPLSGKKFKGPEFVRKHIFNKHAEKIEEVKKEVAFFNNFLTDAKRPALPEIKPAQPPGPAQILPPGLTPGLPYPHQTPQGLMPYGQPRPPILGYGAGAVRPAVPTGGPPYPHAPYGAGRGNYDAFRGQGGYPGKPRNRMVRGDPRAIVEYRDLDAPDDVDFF
UniProt Q9NYA1, whole entry, looked up: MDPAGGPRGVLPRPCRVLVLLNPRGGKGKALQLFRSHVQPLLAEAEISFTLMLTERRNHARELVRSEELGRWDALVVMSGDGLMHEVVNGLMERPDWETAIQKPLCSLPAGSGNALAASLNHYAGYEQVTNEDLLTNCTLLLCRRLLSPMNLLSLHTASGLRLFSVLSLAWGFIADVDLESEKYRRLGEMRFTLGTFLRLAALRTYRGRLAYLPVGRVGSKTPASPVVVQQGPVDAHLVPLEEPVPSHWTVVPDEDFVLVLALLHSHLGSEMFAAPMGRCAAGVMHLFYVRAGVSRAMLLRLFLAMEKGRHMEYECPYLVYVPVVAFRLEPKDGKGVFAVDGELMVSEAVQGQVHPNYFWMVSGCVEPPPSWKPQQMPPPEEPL
UniProt O95793: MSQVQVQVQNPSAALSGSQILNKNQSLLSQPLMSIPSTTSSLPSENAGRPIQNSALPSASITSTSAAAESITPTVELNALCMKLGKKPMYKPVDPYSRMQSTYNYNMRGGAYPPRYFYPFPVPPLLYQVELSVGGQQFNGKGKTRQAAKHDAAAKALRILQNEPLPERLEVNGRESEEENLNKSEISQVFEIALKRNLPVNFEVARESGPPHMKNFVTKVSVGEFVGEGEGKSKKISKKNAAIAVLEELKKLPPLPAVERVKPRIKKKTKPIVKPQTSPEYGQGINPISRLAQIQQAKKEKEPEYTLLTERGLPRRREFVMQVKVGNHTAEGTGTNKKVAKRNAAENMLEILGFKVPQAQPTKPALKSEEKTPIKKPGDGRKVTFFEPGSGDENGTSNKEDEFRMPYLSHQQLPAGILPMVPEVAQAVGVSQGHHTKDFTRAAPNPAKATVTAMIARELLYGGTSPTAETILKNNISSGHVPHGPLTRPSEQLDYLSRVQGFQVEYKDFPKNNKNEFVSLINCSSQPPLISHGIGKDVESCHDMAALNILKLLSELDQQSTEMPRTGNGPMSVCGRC
UniProt Q14534: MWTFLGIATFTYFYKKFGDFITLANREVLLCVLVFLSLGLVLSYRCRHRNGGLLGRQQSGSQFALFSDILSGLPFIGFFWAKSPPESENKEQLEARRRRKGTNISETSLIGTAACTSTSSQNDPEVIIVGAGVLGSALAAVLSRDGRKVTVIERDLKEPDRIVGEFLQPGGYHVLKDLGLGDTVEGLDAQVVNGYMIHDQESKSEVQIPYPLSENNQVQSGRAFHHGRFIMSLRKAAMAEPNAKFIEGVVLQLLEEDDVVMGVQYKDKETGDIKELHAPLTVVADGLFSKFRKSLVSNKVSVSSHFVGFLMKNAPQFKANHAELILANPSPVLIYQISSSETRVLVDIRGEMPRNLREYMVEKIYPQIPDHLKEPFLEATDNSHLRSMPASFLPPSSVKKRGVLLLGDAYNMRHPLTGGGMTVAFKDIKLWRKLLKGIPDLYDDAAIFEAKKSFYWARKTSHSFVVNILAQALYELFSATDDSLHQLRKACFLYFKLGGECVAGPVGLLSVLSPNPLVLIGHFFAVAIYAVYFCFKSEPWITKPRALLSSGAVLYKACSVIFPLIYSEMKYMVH
UniProt Q9HD15: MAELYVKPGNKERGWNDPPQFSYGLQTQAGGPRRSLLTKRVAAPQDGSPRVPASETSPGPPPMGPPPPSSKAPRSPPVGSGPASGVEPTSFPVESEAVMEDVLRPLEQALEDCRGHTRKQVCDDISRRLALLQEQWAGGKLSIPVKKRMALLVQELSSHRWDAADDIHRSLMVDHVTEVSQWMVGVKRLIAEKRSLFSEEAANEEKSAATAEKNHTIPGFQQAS
UniProt P09486: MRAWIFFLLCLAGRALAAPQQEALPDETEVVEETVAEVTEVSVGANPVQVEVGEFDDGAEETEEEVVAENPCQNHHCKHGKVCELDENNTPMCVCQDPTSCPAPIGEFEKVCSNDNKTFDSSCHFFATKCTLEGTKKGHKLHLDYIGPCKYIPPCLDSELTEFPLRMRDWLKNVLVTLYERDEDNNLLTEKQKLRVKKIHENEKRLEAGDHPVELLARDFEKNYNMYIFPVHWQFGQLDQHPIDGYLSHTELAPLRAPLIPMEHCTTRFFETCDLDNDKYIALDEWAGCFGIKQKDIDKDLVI
UniProt Q04837: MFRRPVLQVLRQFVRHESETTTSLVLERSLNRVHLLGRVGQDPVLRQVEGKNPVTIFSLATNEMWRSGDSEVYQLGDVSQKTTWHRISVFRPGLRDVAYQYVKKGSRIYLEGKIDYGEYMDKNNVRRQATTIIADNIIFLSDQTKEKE
UniProt P11277, whole entry, looked up: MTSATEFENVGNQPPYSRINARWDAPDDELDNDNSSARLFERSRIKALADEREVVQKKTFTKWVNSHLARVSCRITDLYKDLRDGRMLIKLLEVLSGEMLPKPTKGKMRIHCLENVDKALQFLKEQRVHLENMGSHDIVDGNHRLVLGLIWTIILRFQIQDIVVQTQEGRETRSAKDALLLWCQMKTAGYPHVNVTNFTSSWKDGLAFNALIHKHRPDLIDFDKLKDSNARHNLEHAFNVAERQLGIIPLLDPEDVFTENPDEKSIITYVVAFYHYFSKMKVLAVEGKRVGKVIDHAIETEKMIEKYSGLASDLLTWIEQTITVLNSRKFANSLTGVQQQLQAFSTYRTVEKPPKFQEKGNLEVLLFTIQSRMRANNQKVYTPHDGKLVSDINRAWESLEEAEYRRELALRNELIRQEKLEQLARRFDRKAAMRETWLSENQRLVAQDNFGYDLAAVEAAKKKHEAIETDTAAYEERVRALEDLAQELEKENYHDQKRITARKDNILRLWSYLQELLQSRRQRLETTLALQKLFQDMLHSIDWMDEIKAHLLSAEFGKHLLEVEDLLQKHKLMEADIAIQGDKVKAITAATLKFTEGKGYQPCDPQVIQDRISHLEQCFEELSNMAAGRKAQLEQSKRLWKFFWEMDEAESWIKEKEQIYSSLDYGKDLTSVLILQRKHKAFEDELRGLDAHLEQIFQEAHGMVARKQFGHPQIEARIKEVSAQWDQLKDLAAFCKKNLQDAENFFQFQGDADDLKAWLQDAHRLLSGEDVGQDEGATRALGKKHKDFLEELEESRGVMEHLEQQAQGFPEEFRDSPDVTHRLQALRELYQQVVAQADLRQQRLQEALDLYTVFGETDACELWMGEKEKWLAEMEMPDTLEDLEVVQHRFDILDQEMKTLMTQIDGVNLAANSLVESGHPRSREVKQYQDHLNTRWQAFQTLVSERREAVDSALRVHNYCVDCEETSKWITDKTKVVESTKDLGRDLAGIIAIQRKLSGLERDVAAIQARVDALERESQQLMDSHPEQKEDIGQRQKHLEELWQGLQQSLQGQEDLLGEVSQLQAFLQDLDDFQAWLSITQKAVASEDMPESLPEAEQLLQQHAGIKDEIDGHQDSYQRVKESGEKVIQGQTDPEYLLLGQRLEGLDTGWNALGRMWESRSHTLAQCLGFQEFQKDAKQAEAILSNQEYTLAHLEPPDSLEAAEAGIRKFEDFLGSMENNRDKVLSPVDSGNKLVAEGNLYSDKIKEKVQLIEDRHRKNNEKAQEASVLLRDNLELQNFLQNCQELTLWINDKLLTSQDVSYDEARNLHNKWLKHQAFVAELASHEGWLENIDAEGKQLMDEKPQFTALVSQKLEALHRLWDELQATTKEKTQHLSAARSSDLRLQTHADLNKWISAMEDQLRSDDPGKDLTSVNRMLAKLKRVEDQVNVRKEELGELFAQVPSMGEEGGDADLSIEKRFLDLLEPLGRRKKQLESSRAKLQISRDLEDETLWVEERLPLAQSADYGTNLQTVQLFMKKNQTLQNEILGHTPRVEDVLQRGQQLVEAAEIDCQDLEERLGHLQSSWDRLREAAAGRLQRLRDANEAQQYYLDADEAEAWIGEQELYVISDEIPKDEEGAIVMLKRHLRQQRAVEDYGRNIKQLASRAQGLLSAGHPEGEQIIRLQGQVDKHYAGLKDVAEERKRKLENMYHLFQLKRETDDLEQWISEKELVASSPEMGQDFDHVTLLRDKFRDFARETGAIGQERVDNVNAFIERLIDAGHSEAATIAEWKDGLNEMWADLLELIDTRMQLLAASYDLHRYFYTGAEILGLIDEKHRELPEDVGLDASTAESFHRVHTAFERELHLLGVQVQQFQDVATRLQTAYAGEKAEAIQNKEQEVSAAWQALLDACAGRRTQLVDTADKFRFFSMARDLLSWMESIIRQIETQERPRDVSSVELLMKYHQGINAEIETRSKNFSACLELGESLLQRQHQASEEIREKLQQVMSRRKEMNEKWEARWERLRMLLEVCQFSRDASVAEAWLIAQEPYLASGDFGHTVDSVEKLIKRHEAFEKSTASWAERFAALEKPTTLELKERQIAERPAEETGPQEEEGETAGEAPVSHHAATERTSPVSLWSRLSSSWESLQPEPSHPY
UniProt Q9BVQ7: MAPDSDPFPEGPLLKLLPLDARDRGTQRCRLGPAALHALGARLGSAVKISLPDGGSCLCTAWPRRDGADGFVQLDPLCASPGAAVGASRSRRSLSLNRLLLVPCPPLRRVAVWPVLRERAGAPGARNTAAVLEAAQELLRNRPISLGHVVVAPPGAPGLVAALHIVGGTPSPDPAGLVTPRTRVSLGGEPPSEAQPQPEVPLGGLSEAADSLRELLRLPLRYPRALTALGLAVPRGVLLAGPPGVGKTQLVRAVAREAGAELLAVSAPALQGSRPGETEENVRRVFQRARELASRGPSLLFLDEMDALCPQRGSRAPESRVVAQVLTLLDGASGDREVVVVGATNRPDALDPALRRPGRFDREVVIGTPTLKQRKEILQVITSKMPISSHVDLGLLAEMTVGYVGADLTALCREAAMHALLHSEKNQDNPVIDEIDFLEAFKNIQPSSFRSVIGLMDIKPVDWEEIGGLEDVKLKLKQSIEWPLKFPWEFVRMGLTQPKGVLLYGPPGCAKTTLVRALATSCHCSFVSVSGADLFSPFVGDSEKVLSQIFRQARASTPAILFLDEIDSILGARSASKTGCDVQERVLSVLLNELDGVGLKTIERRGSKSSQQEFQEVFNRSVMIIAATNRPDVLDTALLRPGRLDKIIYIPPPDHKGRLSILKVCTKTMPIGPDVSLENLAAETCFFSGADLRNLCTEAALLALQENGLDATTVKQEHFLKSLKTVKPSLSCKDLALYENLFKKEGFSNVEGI

Compound in the assay: CC(C)(C)Cn1c(N)nc2ccc(-c3[nH]c(C(C)(C)C)nc3-c3ccc(F)cc3)nc21 [ralimetinib]
In words: log2 fold change, soluble protein after heating vs DMSO (PISA); higher = thermal stabilisation; K562 cells, 10 uM, 30 min; active = over 0.2 and 3.5 SD of the protein, either way, in both replicates (recomputed). The method in brief:
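Aliquots of K562 cells (2×10^6 cells/mL) treated with 10 μM compound for 30 min were heated for 3 min over 48°C-58°C. After pooling and extraction in PBS with 0.5% NP-40 at 4°C, soluble protein from a 21,000xg, 90 min spin was quantified by TMTpro 16plex LC-MS/MS with channel sums equalised. Thermal stability is expressed against control samples, from duplicates, as a log2 fold change.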
For the target SRSF5 (UniProt Q13243), the log2 fold change was inactive: 0.112.

For the target SPRY4 (UniProt Q9C004), the log2 fold change is inactive: -0.051.

SRRT (UniProt Q9BXP5): the log2 fold change was inactive: 0.017.

In the case of SPCS3 (UniProt P61009), the log2 fold change is inactive: -0.029.

As to SPHK1 isoform 2 (UniProt Q9NYA1), the log2 fold change is inactive: -0.072.

For SPRYD4 (UniProt Q8WW59), the log2 fold change was inactive: -0.058.

On to ST6GALNAC1 (UniProt Q9NSC7), for which the log2 fold change was inactive: -0.076.

For the target SRR (UniProt Q9GZT4), the log2 fold change is inactive: 0.007.

In the case of SPTAN1 isoform 2 (UniProt Q13813), the log2 fold change was inactive: 0.035.

In the case of SSR1 (UniProt P43307), the log2 fold change is inactive: -0.077.

Turning to SPRYD7 (UniProt Q5W111), the log2 fold change is inactive: 0.002.

In the case of SPCS1, A0A5F9YFS9, the log2 fold change is inactive: -0.048.

As for STAU1 (UniProt O95793), the log2 fold change is inactive: 0.148.

As for SPN (UniProt P16150), the log2 fold change was inactive: -0.033.

Consider SPIN1 (UniProt Q9Y657), for which the log2 fold change was inactive: -0.043.

Consider SRM (UniProt P19623), for which the log2 fold change is inactive: -0.033.

SQLE (UniProt Q14534): the log2 fold change was inactive: 0.002.

For the target STK11 (UniProt Q15831), the log2 fold change was inactive: -0.004.

Take SPTA1 (UniProt P02549): the log2 fold change is inactive: 0.205.

On to SRA1 (UniProt Q9HD15), for which the log2 fold change is inactive: 0.004.

For STAM (UniProt Q92783), the log2 fold change is inactive: 0.129.

On to STAG2 (UniProt Q8N3U4), for which the log2 fold change is inactive: -0.021.

As for STIP1 isoform 2 (UniProt P31948), the log2 fold change was inactive: -0.049.

Turning to STAT1 (UniProt P42224), the log2 fold change was inactive: 0.146.

For the target SPARC (UniProt P09486), the log2 fold change is inactive: 0.011.

As for SRPK1 (UniProt Q96SB4), the log2 fold change is inactive: 0.127.

For the target SSBP1 (UniProt Q04837), the log2 fold change was inactive: 0.074.

On to SRP14 (UniProt P37108), for which the log2 fold change is inactive: 0.188.

For ST7 (UniProt Q9NRC1), the log2 fold change was inactive: 0.077.

Turning to STAMBP (UniProt O95630), the log2 fold change is inactive: 0.094.

On to SPECC1L (UniProt Q69YQ0), for which the log2 fold change was inactive: -0.023.

Regarding SPTB isoform 2 (UniProt P11277), the log2 fold change is inactive: 0.179.

As to SPTBN2 (UniProt O15020), the log2 fold change was inactive: 0.231.

As for SRP54 (UniProt P61011), the log2 fold change was inactive: 0.009.

Consider SPC25 (UniProt Q9HBM1), for which the log2 fold change was inactive: 0.058.

SPATA5L1 (UniProt Q9BVQ7): the log2 fold change was inactive: 0.004.

For the target STAG1 (UniProt Q8WVM7), the log2 fold change was inactive: -0.053.

For the target SRSF9 (UniProt Q13242), the log2 fold change is inactive: 0.199.

Source of the values: the supplement of paper PMC10849652.
